Results on three molecules are retold here after patent publication US20230331814A1.

Amino acid sequences for entries named in this document (tags omitted). Residues count along the entry.
UniProt P01137, residues 279-390: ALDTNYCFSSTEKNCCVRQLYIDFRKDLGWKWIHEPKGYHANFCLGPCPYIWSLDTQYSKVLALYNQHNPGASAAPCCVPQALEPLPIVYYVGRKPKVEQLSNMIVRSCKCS
UniProt P01127, residues 82-190: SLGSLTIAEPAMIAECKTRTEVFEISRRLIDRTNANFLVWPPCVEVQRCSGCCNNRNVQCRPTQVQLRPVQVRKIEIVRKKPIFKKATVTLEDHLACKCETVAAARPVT

These are yes or no findings as the source states them, for the method shown. Some binding calls cover weakened binding; strength is not graded here.

Sequences and labels used below:
B1: P46 (peptide)
peptide: HISKYILRWRPKNSV
B2: cNP8 (peptide)
peptide: HIGKYGLRWRPKGSV
modifications: cyclic: N terminus amino acid bound to the C terminus amino acid
B3: P12 (peptide)
peptide: PSHISKYILRWRPK

One assay deals with Transforming Growth Factor-Beta1 (UniProt P01137). Nature of the assay: surface plasmon resonance (Biacore T200).
For B1, the binding entry is “binds”.
As for B2, the binding entry was “binds”.
The same measure, in the same setting: for B3 the value was “binds”.

A further assay has as its target platelet-derived growth factor-BB (UniProt P01127). Nature of the assay: surface plasmon resonance (Biacore T200). In general terms: In SPR one partner is held on a chip, and binding of the other changes the refractive index at the surface.
Take B1: the binding result is on record as “binds”.
Same read-out and setting: to B2 belongs “binds”.
For B3, the binding entry is listed as “binds”.
